The target of assay [1] is human N-cadherin expressed on CHO cells (human) (UniProt P19022). The assay can be described thus: association of protein-coated latex beads with cells (differential fluorescence assay); 3 x 10^5 fluorescent latex beads coated with rAls1-N, rAls3-N or biotinylated BSA incubated for 45 min with CHO cells expressing human N-cadherin or E-cadherin (or control CHO cells) on coverslips; cell-associated (endocytosed plus adherent) beads counted, as a percentage of BSA-coated beads; only the binder purified.

The chains behind the UniProt entries cited, without tags or fusion partners. Residues count along the entry.
UniProt P19022, residues 160-906: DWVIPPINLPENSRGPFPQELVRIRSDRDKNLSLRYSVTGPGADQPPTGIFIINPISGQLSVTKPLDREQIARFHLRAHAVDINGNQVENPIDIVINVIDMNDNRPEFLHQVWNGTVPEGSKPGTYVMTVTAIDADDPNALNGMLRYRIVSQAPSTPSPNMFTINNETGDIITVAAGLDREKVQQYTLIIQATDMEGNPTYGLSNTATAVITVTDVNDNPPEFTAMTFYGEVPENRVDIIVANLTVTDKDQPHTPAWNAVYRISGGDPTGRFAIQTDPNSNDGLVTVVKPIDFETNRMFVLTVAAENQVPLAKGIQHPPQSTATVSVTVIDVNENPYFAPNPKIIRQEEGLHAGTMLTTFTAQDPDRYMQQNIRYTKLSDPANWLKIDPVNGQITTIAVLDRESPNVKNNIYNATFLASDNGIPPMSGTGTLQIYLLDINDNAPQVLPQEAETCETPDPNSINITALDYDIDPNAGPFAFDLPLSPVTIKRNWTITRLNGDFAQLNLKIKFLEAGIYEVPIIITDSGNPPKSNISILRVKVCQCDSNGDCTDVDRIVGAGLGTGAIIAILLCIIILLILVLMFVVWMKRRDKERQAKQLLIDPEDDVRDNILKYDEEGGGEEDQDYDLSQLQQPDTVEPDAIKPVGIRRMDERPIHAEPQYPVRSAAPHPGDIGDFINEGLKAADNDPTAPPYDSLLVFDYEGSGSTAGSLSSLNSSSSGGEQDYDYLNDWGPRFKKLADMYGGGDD
UniProt P12830, residues 155-882: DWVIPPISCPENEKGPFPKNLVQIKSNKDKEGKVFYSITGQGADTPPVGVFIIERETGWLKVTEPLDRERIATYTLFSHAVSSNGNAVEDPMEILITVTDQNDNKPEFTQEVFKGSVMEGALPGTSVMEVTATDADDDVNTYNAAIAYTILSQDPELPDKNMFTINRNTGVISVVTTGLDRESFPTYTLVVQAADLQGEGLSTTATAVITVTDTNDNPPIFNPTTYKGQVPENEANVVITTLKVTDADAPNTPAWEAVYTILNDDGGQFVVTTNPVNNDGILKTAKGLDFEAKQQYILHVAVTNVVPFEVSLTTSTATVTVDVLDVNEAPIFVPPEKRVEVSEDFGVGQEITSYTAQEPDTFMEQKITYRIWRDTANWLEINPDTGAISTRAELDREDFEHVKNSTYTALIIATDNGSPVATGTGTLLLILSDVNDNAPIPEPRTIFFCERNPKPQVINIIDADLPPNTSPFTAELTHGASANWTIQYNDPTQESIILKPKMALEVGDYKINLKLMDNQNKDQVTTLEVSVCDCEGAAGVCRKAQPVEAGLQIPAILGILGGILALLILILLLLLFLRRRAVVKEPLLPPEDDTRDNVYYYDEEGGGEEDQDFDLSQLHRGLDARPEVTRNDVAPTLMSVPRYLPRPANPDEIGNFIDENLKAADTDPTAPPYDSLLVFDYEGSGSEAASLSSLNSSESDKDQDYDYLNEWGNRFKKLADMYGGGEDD
UniProt Q59L12, residues 17-432: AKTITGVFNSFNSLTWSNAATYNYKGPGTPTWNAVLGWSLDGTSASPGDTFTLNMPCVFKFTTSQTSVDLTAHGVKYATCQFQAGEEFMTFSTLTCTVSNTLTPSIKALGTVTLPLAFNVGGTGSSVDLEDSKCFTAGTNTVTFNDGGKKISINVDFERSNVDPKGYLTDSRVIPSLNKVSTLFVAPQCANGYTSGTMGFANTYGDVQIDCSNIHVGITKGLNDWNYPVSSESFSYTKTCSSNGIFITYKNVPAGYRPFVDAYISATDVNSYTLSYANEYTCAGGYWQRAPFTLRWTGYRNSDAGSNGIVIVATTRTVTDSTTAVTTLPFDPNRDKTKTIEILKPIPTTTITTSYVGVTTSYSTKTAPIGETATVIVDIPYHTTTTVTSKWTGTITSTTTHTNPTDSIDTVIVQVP
UniProt Q5A8T4, residues 17-432: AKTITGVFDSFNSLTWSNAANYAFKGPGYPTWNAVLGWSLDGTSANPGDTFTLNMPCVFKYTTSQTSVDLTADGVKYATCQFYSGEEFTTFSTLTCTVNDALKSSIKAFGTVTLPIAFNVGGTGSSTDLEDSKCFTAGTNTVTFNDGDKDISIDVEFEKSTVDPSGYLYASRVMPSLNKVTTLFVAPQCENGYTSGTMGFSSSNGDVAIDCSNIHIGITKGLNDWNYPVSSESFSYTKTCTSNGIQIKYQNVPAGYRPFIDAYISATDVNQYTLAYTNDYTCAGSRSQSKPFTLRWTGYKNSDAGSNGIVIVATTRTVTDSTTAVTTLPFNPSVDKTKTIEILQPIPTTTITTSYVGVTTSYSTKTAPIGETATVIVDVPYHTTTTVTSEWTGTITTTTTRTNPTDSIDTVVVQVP

The target of assay [2] is human E-cadherin expressed on CHO cells (human) (UniProt P12830). The assay is described as above.

Results are given in words; binding and its absence hold for the method and conditions named. Some results given as binding are weak or reduced against the parent protein; the word gives no strength.

As to “recombinant N-terminal portion of Als3 (from UniProt Q59L12 17-432) (domain or fragment)”, the binding entry in assay [1] and in assay [2] was “binds weakly” throughout.

“recombinant N-terminal portion of Als1 (from UniProt Q5A8T4 17-432) (domain or fragment)”: the binding entry in assay [1] is listed as “binds weakly”.

The record behind these values is PMC1802757.
